Results are given in words; binding and its absence hold for the method and conditions named. Binding seen in cells or lysates may run through a third protein. A yes stands for co-enrichment or nearness to the bait. Other partners may have been found. No binding means not detected with the bait. Where a sequence is shown, tags or fusion partners need not be part of it.
Molecular target: T1, 6×His-SUMO-DarB bound to the Ni-NTA column (B. subtilis 168) (UniProt O31698)
T1 sequence: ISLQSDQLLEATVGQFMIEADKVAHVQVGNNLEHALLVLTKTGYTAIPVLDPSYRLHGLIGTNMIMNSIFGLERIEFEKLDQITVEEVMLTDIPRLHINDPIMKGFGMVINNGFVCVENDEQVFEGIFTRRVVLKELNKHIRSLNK
Experiment: affinity purification with mass spectrometry; 6×His-SUMO-DarB bound to a Ni-NTA column; B. subtilis 168 crude extract (from LB) added; washed; eluted with an imidazole gradient; eluates analysed by mass spectrometry; empty vector pET-SUMO as control; only the target purified

- binding: no binding
Substance: CcpC, endogenous (B. subtilis (endogenous in strain 168))

Source: PMC7900238, “A meet-up of two second messengers: the c-di-AMP receptor DarB controls (p)ppGpp synthesis in Bacillus subtilis” (Nature Communications, 2021)
